In PubChem BioAssay AID1671190 (National Center for Advancing Translational Sciences (NCATS), 2021):
About 6,100 (1.1%) of roughly 580,000 compounds were called active. The shares of active, inactive and inconclusive entries below differ from those in the screen. The call rests on the fitted dose curve; in most records, active means well fitted inhibition curve with a large enough effect; inconclusive means small, poorly fitted or top-dose-only effect, or another doubt; inactive means no such curve, though single readings can be large or run the other way. A potency beside an inconclusive call is a rough fit, not a confirmed value. Numbered stars: 1 amine (or outer) side, 2 acyl side, 3 side chain; on linkers, the order of the positions; unused ones are H or OH. Bridge positions count the residues as written; N and C are the ends. Square brackets hold non-standard residues; d marks the D form. Peptide text beside a SMILES is read from it. I, II: the chains in the order shown. Actinocin(9to1) = Cc1c2oc3c(C)ccc(C(=O)[*:1])c3nc-2c(C(=O)[*:2])c(N)c1=O; aThr = C[C@H](O)[C@H](N)C(=O)O; NMeV = CN[C@H](C(=O)O)C(C)C; Sar = CNCC(=O)O

Amino acid sequences for entries named in this document (tags omitted).
UniProt P18054, whole entry, looked up: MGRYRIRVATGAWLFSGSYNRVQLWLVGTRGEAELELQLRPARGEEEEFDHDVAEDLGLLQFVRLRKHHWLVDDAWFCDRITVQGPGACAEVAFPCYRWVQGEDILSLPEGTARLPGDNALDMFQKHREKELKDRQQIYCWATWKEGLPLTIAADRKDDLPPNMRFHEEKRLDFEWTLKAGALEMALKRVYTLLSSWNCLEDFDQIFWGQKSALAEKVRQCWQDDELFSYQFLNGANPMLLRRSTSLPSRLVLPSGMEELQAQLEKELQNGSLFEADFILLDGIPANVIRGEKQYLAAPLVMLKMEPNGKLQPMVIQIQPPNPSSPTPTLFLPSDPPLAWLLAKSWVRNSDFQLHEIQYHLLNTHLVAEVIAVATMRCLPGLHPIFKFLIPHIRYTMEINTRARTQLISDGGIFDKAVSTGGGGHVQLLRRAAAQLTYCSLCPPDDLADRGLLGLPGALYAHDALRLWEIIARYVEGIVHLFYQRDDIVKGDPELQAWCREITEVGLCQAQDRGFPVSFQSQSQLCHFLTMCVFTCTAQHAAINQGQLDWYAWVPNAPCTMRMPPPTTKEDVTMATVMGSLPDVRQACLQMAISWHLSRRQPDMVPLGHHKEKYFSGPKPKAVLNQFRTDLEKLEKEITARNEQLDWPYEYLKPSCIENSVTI

The compounds below were run against Polyunsaturated fatty acid lipoxygenase ALOX12 (Homo sapiens) (UniProt P18054) (assay: Primary qHTS assay for inhibitors of human arachidonate 12S-lipoxygenase (ALOX12): Round 2). Settings: purified 12hLO, xylenol orange hydroperoxide absorbance; activity change, negative = inhibition: at 108 µM (top of the series) unless noted.
Method in brief: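 Purified human 12hLO (150 nM final) in 25 mM Hepes, 0.01% Triton X-100, pH 7.0 was preincubated 15 min at room temperature with compound. Then 40 uM arachidonic acid was added, 30 min. Hydroperoxide was read by Fe-XO absorbance ratio 573/405 nm.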
On the % scale 0 is the no-effect control and ±100 the full control effect; potency means the concentration at half of the fitted maximal effect.

SMILES | Potency | activity change, negative = inhibition
CCc1ccc(NC(=S)N2CCC(NC(=O)c3ccccc3OC)CC2)cc1 | inconclusive: 56.2 µM [inhibitor, partial curve, poor fit] | –
CCN1CCN(C(=O)c2ccc3c(c2)N(Cc2ccc(C)cc2)CCS3)CC1 | – | inactive: -11.6%
CC(=O)c1ccc(C(=O)NC2CCCN(Cc3ccc(Cl)cc3)C2)s1 (stereo not given) | inconclusive: 112 µM [inhibitor, single point] | –
COc1ccc(-c2cc(C(=O)NCc3ccco3)c3ccccc3n2)cc1 | inconclusive: 0.562 µM [inhibitor, full curve, poor fit] | –
Cc1ccc(C(=O)N2CCc3nc(C4CC4)nc(-c4ccc(Cl)cc4)c3C2)cc1 | inconclusive: 11.2 µM [inhibitor, full curve, poor fit] | –
O=C(O)CC(NC(=O)C12CC3CC(CC(C3)C1)C2)c1cccc([N+](=O)[O-])c1 (stereo not given) | inconclusive: 31.6 µM [inhibitor, partial curve, poor fit] | –
COc1ccccc1N(Cc1cc2ccc(C)cc2[nH]c1=O)C(C)=O | inconclusive: 89.1 µM [inhibitor, partial curve, poor fit] | –
CC(NC(=S)NCc1ccc(F)cc1)C12CC3CC(CC(C3)C1)C2 (stereo not given) | inconclusive: 44.7 µM [inhibitor, partial curve, poor fit] | –
Cc1ccc(NC(=O)CSc2nc(=O)n(CCCN3CCOCC3)c3c2CCCC3)c(C)c1 | inconclusive: 1.78 µM [inhibitor, full curve, poor fit] | –
COc1ccccc1NS(=O)(=O)c1ccc(Cl)c(NC(=S)NC(=O)C2CCCC2)c1 | inconclusive: 28.2 µM [inhibitor, partial curve] | –
CN(Cc1nc2ccccc2n1C(F)F)S(=O)(=O)c1c(F)cccc1F | inconclusive: 44.7 µM [inhibitor, partial curve, poor fit] | –
S=c1[nH]c2ccc(Cc3ccc4[nH]c(=S)[nH]c4c3)cc2[nH]1 | active: 44.7 µM | –
COCc1nnc(NS(=O)(=O)c2ccc(Br)cc2)s1 | inconclusive: 112 µM [inhibitor, partial curve, poor fit] | –
Cc1c(N=C2NN=C(c3ccc(Cl)cc3)CS2)c(=O)n(-c2ccccc2)n1C | inconclusive: 70.8 µM [inhibitor, partial curve, poor fit] | –
COc1ccc(C(=O)N[C@@H]2CCC[C@@H]2C(=O)NCc2cc(OC)cc(OC)c2)cc1 | inconclusive: 11.2 µM [inhibitor, partial curve, poor fit] | –
COc1cccc(C(=O)NC2CCN(c3cc(-c4ccc(Cl)cc4)[nH]n3)C2)c1 (stereo not given) | – | inactive: -6.28%
CCc1cccc(NC(=O)NCC(O)c2ccc(F)c(F)c2)c1 (stereo not given) | inconclusive: 141 µM [inhibitor, single point] | –
COC(=O)c1c(SCC(=O)Nc2cc(C)cc(C)c2)[nH]c2ccccc2c1=O | – | inactive: -18.4%

SMILES | Potency | activity change, negative = inhibition
COc1cccc(-c2nc(N3CCCCCC3)c3ccccc3n2)c1O | inconclusive: 44.7 µM [inhibitor, partial curve, poor fit] | –
COc1cccc(C(=O)NCCN2CCN(c3ccccc3)CC2)c1 | active: 15.8 µM | –
c1ccc2c(Cc3c[nH]c4ccccc34)c[nH]c2c1 | inconclusive: 0.769 µM [inhibitor, full curve] | –
O=[S+]1([O-])NC2(CCN(Cc3ccc(F)cc3)C2)COc2ncccc21 (stereo not given) | – | inactive: 5.39% [at 6.33 µM]
Cc1ccc(C)c(CN2C(=O)c3ccccc3S(=O)(=O)c3ccc(C(=O)N4CCCCCC4)cc32)c1 | – | inactive: -8.88%
C=CCOc1ccc(/C=C2\N=C(SC)SC2=O)cc1 | inconclusive: 14.1 µM [inhibitor, partial curve, poor fit] | –
Cc1cccc(N2CCN(C3=NC(=O)C(=C4CCCCC4)S3)CC2)c1 | inconclusive: 39.8 µM [inhibitor, partial curve, poor fit] | –
CC(=O)Nc1ccc(C2Sc3ccccc3NC3=C2C(=O)c2ccccc23)cc1 (stereo not given) | – | inconclusive: -33.6% [inhibitor]
O=C1CC(N2CCc3ccccc32)C(=O)N1c1ccccc1 (stereo not given) | inconclusive: 126 µM [inhibitor, single point] | –
CCOC(=O)COc1cc(OCc2ccccc2)c2c(=O)cc(-c3ccccc3)oc2c1 | inconclusive: 3.16 µM [inhibitor, full curve, poor fit] | –
COc1cccc(NC(=O)CSc2ncc(S(=O)(=O)c3ccc(C)c(C)c3)c(=O)[nH]2)c1 | inconclusive: 39.8 µM [inhibitor, partial curve, poor fit] | –
Cn1c(=O)c2c(O)c([N+](=O)[O-])c(=O)n(C)c2n(C)c1=O | inconclusive: 126 µM [inhibitor, single point] | –
COc1ccc(CNC(=O)C[C@H]2C[C@H](C(=O)N3CCCCC3)[C@@]3(C)c4[nH]c5ccc(Cl)cc5c4CCN3C2=O)cc1OC | inconclusive: 39.8 µM [inhibitor, partial curve, poor fit] | –
CC(C)NC(=O)C1(C)CSCC(=O)N1CCOc1ccccc1 (stereo not given) | inconclusive: 112 µM [inhibitor, single point] | –
CC(C)Sc1ccc2nn(CC(=O)Nc3ccc(Cl)cc3)c(=O)n2n1 | inconclusive: 28.2 µM [inhibitor, partial curve, poor fit] | –
CC(C)c1ccc(Nc2n[nH]c(=S)s2)cc1 | active: 6.31 µM | –
Cc1c2oc3c(C)ccc(C(=O)N[C@@H]4C(=O)N[C@@H](C(C)C)C(=O)N5CCC[C@@H]5C(=O)N(C)CC(=O)N(C)[C@@H](C(C)C)C(=O)O[C@H]4C)c3nc-2c(C(=O)N[C@@H]2C(=O)N[C@@H](C(C)C)C(=O)N3CCC[C@@H]3C(=O)N(C)CC(=O)N(C)[C@@H](C(C)C)C(=O)O[C@H]2C)c(N)c1=O (I: [aThr]V[dP][Sar][NMeV] / II: [aThr]V[dP][Sar][NMeV]; ester I:1-I:C, II:1-II:C; linker I:N-II:N via Actinocin(9to1)) | inconclusive: 35.5 µM [inhibitor, single point] | –

A different layout for some results above:

| SMILES | Potency | activity change, negative = inhibition |
| --- | --- | --- |
| O=[S+]1([O-])NC2(CCN(Cc3ccc(F)cc3)C2)COc2ncccc21 (stereo not given) | – | inactive: 5.39% [at 6.33 µM] |
| Cc1ccc(C)c(CN2C(=O)c3ccccc3S(=O)(=O)c3ccc(C(=O)N4CCCCCC4)cc32)c1 | – | inactive: -8.88% |
| C=CCOc1ccc(/C=C2\N=C(SC)SC2=O)cc1 | inconclusive: 14.1 µM [inhibitor, partial curve, poor fit] | – |
| Cc1cccc(N2CCN(C3=NC(=O)C(=C4CCCCC4)S3)CC2)c1 | inconclusive: 39.8 µM [inhibitor, partial curve, poor fit] | – |
| CC(=O)Nc1ccc(C2Sc3ccccc3NC3=C2C(=O)c2ccccc23)cc1 (stereo not given) | – | inconclusive: -33.6% [inhibitor] |
| O=C1CC(N2CCc3ccccc32)C(=O)N1c1ccccc1 (stereo not given) | inconclusive: 126 µM [inhibitor, single point] | – |
| CCOC(=O)COc1cc(OCc2ccccc2)c2c(=O)cc(-c3ccccc3)oc2c1 | inconclusive: 3.16 µM [inhibitor, full curve, poor fit] | – |
| COc1cccc(NC(=O)CSc2ncc(S(=O)(=O)c3ccc(C)c(C)c3)c(=O)[nH]2)c1 | inconclusive: 39.8 µM [inhibitor, partial curve, poor fit] | – |
| Cn1c(=O)c2c(O)c([N+](=O)[O-])c(=O)n(C)c2n(C)c1=O | inconclusive: 126 µM [inhibitor, single point] | – |
